PubChem BioAssay AID686938 | Drosophila RNAi Screening Center – 2013
The deposit covers about 23,000 reagents; below is a random part of those with a known target gene and a result. Of all reagents, 75 (0.33%) were called active. 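Raw plate signals without normalisation; calls rest on plate z-scores that were not deposited; ratio present for only 364 wells.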 Names joined by + are all predicted targets of the reagent. Not given: the dose of the treatment.

Test: 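Fly genes required for calcium entry once internal stores are emptied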 (primary screen)
Cells: Drosophila S2R+ cells
Reagent: long dsRNA against Drosophila genes, about 0.25 µg dsRNA per well, roughly 10,000 cells
Time to read-out: 5 days of knock-down before the calcium assay
Treatment: thapsigargin (SERCA pump blocker) to empty calcium stores; entry signal taken 4 min after adding it
Detection: 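Per-well fluo-4 fluorescence in two replicates, unnormalised, measured in resting cells and 4 min after store depletion by the SERCA blocker thapsigargin; ratio of the two present in few wells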
Direction: calcium entry signal: higher = stronger calcium signal after store depletion; entry to resting ratio: higher = more calcium entry relative to resting level; resting calcium signal: higher = higher resting calcium signal
Call rule: 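Called when the plate z-score of the entry-to-rest ratio, mean of duplicates, falls below −3; wells with low overall dye signal (Fmax z below −2) or more than five off-targets excluded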
Meaning of the calls: active = strongly reduced calcium entry; inactive = no strong reduction

gene knocked down	amplicon	calcium entry signal, replicate 1 (fluorescence units)	calcium entry signal, replicate 2 (fluorescence units)	entry to resting ratio	resting calcium signal, replicate 1 (fluorescence units)	resting calcium signal, replicate 2 (fluorescence units)	activity call
GABPI	DRSC00494	4.52e7			2.27e7		inactive
rump	DRSC16480	3.67e7	3.95e7		1.64e7	1.95e7	inactive
Naa40	DRSC16265	4.01e7	4.83e7		1.97e7	2.18e7	inactive
CG15822	DRSC08482	2.78e7	3.89e7		1.43e7	1.74e7	inactive
CG15822	DRSC08483	2.97e7	3.48e7		1.45e7	1.64e7	inactive
spab	DRSC07112	2.58e7	3.40e7		1.26e7	1.51e7	inactive
cindr	DRSC14126	4.53e7	4.49e7		1.93e7	2.17e7	inactive
cindr	DRSC14298	3.61e7	5.73e7		1.89e7	2.27e7	inactive
Nup160 + RfC38	DRSC01997	3.50e7			1.86e7		inactive
Pkd2	DRSC02962	4.28e7	3.16e7		1.94e7	1.41e7	inactive
CG18605	DRSC06772	4.71e7	3.64e7		2.06e7	1.81e7	inactive
baz	DRSC20309	4.81e7	3.58e7		2.67e7	1.64e7	inactive
Clc	DRSC11116	2.74e7	4.31e7		1.28e7	2.99e7	inactive
CG4318	DRSC19887	4.68e7	6.31e7		2.25e7	2.92e7	inactive
Det	DRSC14489	3.06e7	5.21e7		1.61e7	6.95e7	inactive
CG33752	DRSC05351	3.84e7	4.36e7		1.80e7	1.84e7	inactive
CG13085	DRSC02189	4.34e7	5.22e7		2.19e7	2.19e7	inactive
CG34393	DRSC00419	2.46e7	2.34e7		1.19e7	1.19e7	inactive
CG34393	DRSC00710	2.21e7	2.40e7		1.06e7	1.09e7	inactive
CG13965	DRSC02307	4.71e7	4.21e7		2.40e7	1.89e7	inactive
CG18063	DRSC01968	5.05e7	3.52e7		2.24e7	1.59e7	inactive
ppk10	DRSC01123	3.30e7	5.04e7		1.71e7	2.22e7	inactive
Sgs5	DRSC16862	3.02e7	6.34e7		1.79e7	7.21e7	inactive
CG14495	DRSC06466	4.57e7	4.10e7		2.02e7	1.89e7	inactive
rpr	DRSC11390	2.89e7	5.14e7		1.58e7	1.96e7	inactive
Alg14	DRSC19983	3.01e7	2.80e7		1.69e7	1.41e7	inactive
lectin-30A	DRSC02560	2.99e7	4.67e7		1.41e7	2.05e7	inactive
CG3862	DRSC00631	4.16e7			2.13e7		inactive
CG4629	DRSC00659	4.20e7	4.43e7		1.86e7	1.91e7	inactive
CG32544	DRSC20033	2.38e7	4.06e7		2.00e7	1.61e7	inactive
Drl-2	DRSC05393	5.31e7	4.62e7		2.58e7	2.28e7	inactive
Drl-2	DRSC06155	2.08e7	3.02e7		1.04e7	1.36e7	inactive
Drl-2	DRSC06858	2.09e7	3.53e7		9.93e6	1.54e7	inactive
CG10132	DRSC02013	3.82e7			2.03e7		inactive
CG32237	DRSC08312	2.77e7	3.77e7		1.44e7	1.57e7	inactive
CG32237	DRSC08315	2.81e7	4.29e7		1.43e7	1.89e7	inactive
Sema1a	DRSC03433	3.41e7	5.27e7		1.59e7	2.14e7	inactive
CG18558	DRSC00525	3.27e7	3.96e7		1.64e7	1.75e7	inactive
CG18558	DRSC21593	2.45e7	3.18e7		1.36e7	1.41e7	inactive
CtsK1	DRSC08742	5.26e7	4.74e7		2.16e7	2.00e7	inactive
sima	DRSC17055	3.92e7	6.63e7		2.18e7	3.33e7	inactive
sima	DRSC23203	4.09e7	5.12e7		2.18e7	2.39e7	inactive
Sb	DRSC16851	3.91e7	5.46e7		1.85e7	6.36e7	inactive
CG7191	DRSC03022	2.20e7	3.42e7		1.06e7	1.48e7	inactive
galectin	DRSC00305	3.66e7	3.74e7		1.65e7	1.54e7	inactive
nsl1	DRSC15625	2.43e7	2.13e7		1.60e7	1.35e7	active
CG32718	DRSC17538	2.85e7	3.88e7		1.48e7	1.70e7	inactive
dnc	DRSC17758	4.15e7	5.78e7	2	2.07e7	2.58e7	inactive
dnc	DRSC17759	3.88e7	5.78e7	2.1	1.84e7	2.26e7	inactive
dnc	DRSC17911	3.67e7	5.38e7	2	1.82e7	2.24e7	inactive
dnc	DRSC18763	4.25e7	5.68e7	1.9	2.25e7	2.58e7	inactive
dnc	DRSC18764	5.30e7	5.36e7	2.2	2.38e7	1.95e7	inactive
flap	DRSC03918	2.95e7	4.49e7		1.39e7	2.06e7	inactive
flap	DRSC04087	3.72e7			1.73e7		inactive
Ssl	DRSC04657	4.14e7	4.79e7		2.16e7	2.20e7	inactive
Eph	DRSC17164	5.08e7	5.45e7	2.1	2.42e7	2.32e7	inactive
puf	DRSC15875	3.34e7	6.29e7		2.34e7	3.58e7	inactive
puf	DRSC23167	2.97e7	3.39e7		1.61e7	1.49e7	inactive

Copied from the listing for reference:
gene knocked down	amplicon	calcium entry signal, replicate 1 (fluorescence units)	calcium entry signal, replicate 2 (fluorescence units)	entry to resting ratio	resting calcium signal, replicate 1 (fluorescence units)	resting calcium signal, replicate 2 (fluorescence units)	activity call
CG13085	DRSC02189	4.34e7	5.22e7		2.19e7	2.19e7	inactive
CG34393	DRSC00419	2.46e7	2.34e7		1.19e7	1.19e7	inactive
CG34393	DRSC00710	2.21e7	2.40e7		1.06e7	1.09e7	inactive
CG13965	DRSC02307	4.71e7	4.21e7		2.40e7	1.89e7	inactive
CG18063	DRSC01968	5.05e7	3.52e7		2.24e7	1.59e7	inactive
ppk10	DRSC01123	3.30e7	5.04e7		1.71e7	2.22e7	inactive
Sgs5	DRSC16862	3.02e7	6.34e7		1.79e7	7.21e7	inactive
CG14495	DRSC06466	4.57e7	4.10e7		2.02e7	1.89e7	inactive
rpr	DRSC11390	2.89e7	5.14e7		1.58e7	1.96e7	inactive
